Results are given in words; binding and its absence hold for the method and conditions named. In cells and extracts the contact can be indirect. Some results given as binding are weak or reduced against the parent protein; the word gives no strength. Where a sequence is shown, tags or fusion partners need not be part of it.

The chains behind the UniProt entries cited, without tags or fusion partners.
UniProt P9WI13: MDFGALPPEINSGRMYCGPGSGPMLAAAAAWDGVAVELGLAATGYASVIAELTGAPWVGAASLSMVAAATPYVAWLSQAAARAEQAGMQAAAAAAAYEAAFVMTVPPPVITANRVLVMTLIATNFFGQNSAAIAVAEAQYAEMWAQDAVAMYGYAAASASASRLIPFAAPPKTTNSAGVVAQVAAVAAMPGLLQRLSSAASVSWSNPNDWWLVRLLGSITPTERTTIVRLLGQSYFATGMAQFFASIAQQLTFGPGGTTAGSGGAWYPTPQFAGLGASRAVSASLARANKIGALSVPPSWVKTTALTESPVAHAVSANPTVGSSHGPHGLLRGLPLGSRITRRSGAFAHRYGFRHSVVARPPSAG
UniProt Q79FK5: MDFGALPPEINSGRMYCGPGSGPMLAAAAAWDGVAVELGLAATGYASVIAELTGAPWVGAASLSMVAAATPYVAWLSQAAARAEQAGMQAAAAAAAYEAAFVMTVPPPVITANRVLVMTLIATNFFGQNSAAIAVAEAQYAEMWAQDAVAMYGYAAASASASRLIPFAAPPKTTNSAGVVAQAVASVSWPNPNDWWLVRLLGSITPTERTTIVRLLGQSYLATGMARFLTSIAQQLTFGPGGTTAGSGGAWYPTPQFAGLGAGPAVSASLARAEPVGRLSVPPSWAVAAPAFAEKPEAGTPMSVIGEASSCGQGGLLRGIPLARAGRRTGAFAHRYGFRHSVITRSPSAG

Holding throughout (test): pull-down
The target in assay [1] is T1, His-tagged PPE26 (Rv1789) of Mycobacterium tuberculosis (Mycobacterium tuberculosis), Q79FK6.
T1 chain: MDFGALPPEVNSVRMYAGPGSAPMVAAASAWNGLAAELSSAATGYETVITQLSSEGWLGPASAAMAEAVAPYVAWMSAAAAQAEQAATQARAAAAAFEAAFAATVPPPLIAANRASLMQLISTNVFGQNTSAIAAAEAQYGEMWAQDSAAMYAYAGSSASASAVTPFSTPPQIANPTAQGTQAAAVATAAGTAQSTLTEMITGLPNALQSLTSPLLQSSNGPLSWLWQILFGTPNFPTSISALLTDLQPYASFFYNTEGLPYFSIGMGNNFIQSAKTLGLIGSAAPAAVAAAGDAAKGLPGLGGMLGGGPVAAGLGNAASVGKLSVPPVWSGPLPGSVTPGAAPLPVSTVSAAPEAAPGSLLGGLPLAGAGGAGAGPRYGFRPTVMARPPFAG
Particulars: remark: other sources report otherwise.

Assay [2] addresses PE19 (Rv1791) of Mycobacterium tuberculosis, His-tagged and GST-tagged copies co-expressed (Mycobacterium tuberculosis) (UniProt Q79FK4).
The target of assay [3] is PE18 (Rv1788) of Mycobacterium tuberculosis, His-tagged and GST-tagged copies co-expressed (Mycobacterium tuberculosis) (UniProt L7N649).
Assay [4] has as its target His-tagged PPE25 (Rv1787) of Mycobacterium tuberculosis (Mycobacterium tuberculosis) (UniProt P9WI13).
The target in assay [5] is His-tagged PPE27 (Rv1790) of Mycobacterium tuberculosis (Mycobacterium tuberculosis) (UniProt Q79FK5).

B1: GST-tagged PE18 (Rv1788) of Mycobacterium tuberculosis, L7N649 1-99 (protein)
chain: MSFVTTQPEALAAAAGSLQGIGSALNAQNAAAATPTTGVVPAAADEVSALTAAQFAAHAQIYQAVSAQAAAIHEMFVNTLQMSSGSYAATEAANAAAAG
Turning to B1, the binding result in assay [1] is reported as “binds”.

B2: PE19 (Rv1791) of Mycobacterium tuberculosis, His-tagged and GST-tagged copies co-expressed (protein, UniProt Q79FK4 1-99)
chain: MSFVTTQPEALAAAAANLQGIGTTMNAQNAAAAAPTTGVVPAAADEVSALTAAQFAAHAQMYQTVSAQAAAIHEMFVNTLVASSGSYAATEAANAAAAG
Consider B2, for which, in assay [2], the binding result is given as “binds”.

B3: PE18 (Rv1788) of Mycobacterium tuberculosis, His-tagged and GST-tagged copies co-expressed (protein, UniProt L7N649 1-99)
chain: MSFVTTQPEALAAAAGSLQGIGSALNAQNAAAATPTTGVVPAAADEVSALTAAQFAAHAQIYQAVSAQAAAIHEMFVNTLQMSSGSYAATEAANAAAAG
B3: the binding result in assay [3] is given as “binds”.

B4: GST-tagged PE19 (Rv1791) of Mycobacterium tuberculosis (protein, UniProt Q79FK4 1-99)
chain: MSFVTTQPEALAAAAANLQGIGTTMNAQNAAAAAPTTGVVPAAADEVSALTAAQFAAHAQMYQTVSAQAAAIHEMFVNTLVASSGSYAATEAANAAAAG
As to B4, in assay [4], the binding result is “binds”.

B5: GST-tagged PE18 (Rv1788) of Mycobacterium tuberculosis (protein, UniProt L7N649 1-99)
chain: MSFVTTQPEALAAAAGSLQGIGSALNAQNAAAATPTTGVVPAAADEVSALTAAQFAAHAQIYQAVSAQAAAIHEMFVNTLQMSSGSYAATEAANAAAAG
For the molecule B5, the binding entry in assay [5] was “binds”.

Source of the values: PMC11821933.
